In PMC9066967:
No constants are given. Whether binding was seen depends on the method and setting. Binding seen in cells or lysates may run through a third protein. Some binding calls cover weakened binding; strength is not graded here.

Target: p53 (human (endogenous in Beas-2B)) (UniProt P04637)
Test: co-IP; endogenous proteins in lysate of Beas-2B cells treated with CSE for 4 h; which antibody precipitated and which detected is not told

binding: binds
B1: Retinoid-related orphan receptor-α (protein, UniProt P35398 1-523)
chain: MESAPAAPDPAASEPGSSGADAAAGSRETPLNQESARKSEPPAPVRRQSYSSTSRGISVTKKTHTSQIEIIPCKICGDKSSGIHYGVITCEGCKGFFRRSQQSNATYSCPRQKNCLIDRTSRNRCQHCRLQKCLAVGMSRDAVKFGRMSKKQRDSLYAEVQKHRMQQQQRDHQQQPGEAEPLTPTYNISANGLTELHDDLSNYIDGHTPEGSKADSAVSSFYLDIQPSPDQSGLDINGIKPEPICDYTPASGFFPYCSFTNGETSPTVSMAELEHLAQNISKSHLETCQYLREELQQITWQTFLQEEIENYQNKQREVMWQLCAIKITEAIQYVVEFAKRIDGFMELCQNDQIVLLKAGSLEVVFIRMCRAFDSQNNTVYFDGKYASPDVFKSLGCEDFISFVFEFGKSLCSMHLTEDEIALFSAFVLMSADRSWLQEKVKIEKLQQKIQLALQHVLQKNHREDGILTKLICKVSTLRALCGRHTEKLMAFKAIYPDIVRLHFPPLYKELFTSEFEPAMQIDG
